Legend:
[1] = Bleed-out properties in polarizer (haze evaluation); conditions: haze of polarizing plate; additive in polarizer, added amount 1.0 per 100 parts by mass of polyvinyl alcohol resin
[2] = Evaluation of durability of polarizing plate, additive in polarizer (Example 2); conditions: added amount 1.0 per 100 parts by mass of polyvinyl alcohol resin, 410 nm
[3] = Evaluation of durability of polarizing plate, additive in adhesive layer (Example 3); conditions: added amount 10.0 per 100 parts by mass of the polyvinyl alcohol resin, film thickness 5 μm; for Durability of polarizer: amount of change of orthogonal transmittance (%) 60° C., 95%, 500 hours / Durability of polarizer: amount of change of orthogonal transmittance (%) 60° C., 95%, 1,000 hours / Durability of polarizer: amount of change of orthogonal transmittance (%) 80° C., Dry 500 hours / Durability of polarizer: amount of change of orthogonal transmittance (%) 80° C., Dry, 1,000 hours: 410 nm

Row | SMILES | Bleed out [1] | Durability of polarizer: amount of change of degree of polarization (%) 60° C., 95%, 500 hours [2] | Durability of polarizer: amount of change of degree of polarization (%) 60° C., 95%, 1,000 hours [2] | Durability of polarizer: amount of change of degree of polarization (%) 80° C., Dry, 500 hours [2] | Durability of polarizer: amount of change of degree of polarization (%) 80° C., Dry, 1,000 hours [2] | Durability of polarizer: amount of change of orthogonal transmittance (%) 60° C., 95%, 500 hours [2] | Durability of polarizer: amount of change of orthogonal transmittance (%) 60° C., 95%, 1,000 hours [2] | Durability of polarizer: amount of change of orthogonal transmittance (%) 80° C., Dry 500 hours [2] | Durability of polarizer: amount of change of orthogonal transmittance (%) 80° C., Dry, 1,000 hours [2] | Durability of polarizer: amount of change of degree of polarization (%) 60° C., 95%, 500 hours [3] | Durability of polarizer: amount of change of degree of polarization (%) 60° C., 95%, 1,000 hours [3] | Durability of polarizer: amount of change of degree of polarization (%) 80° C., Dry, 500 hours [3] | Durability of polarizer: amount of change of degree of polarization (%) 80° C., Dry, 1,000 hours [3] | Durability of polarizer: amount of change of orthogonal transmittance (%) 60° C., 95%, 500 hours [3] | Durability of polarizer: amount of change of orthogonal transmittance (%) 60° C., 95%, 1,000 hours [3] | Durability of polarizer: amount of change of orthogonal transmittance (%) 80° C., Dry 500 hours [3] | Durability of polarizer: amount of change of orthogonal transmittance (%) 80° C., Dry, 1,000 hours [3]
1 | COC(=O)Oc1[nH]c(=O)n(Cc2ccc(B(O)O)cc2)c(=O)c1Cc1ccc(S(=O)(=O)[O-])cc1S(=O)(=O)[O-].[Na+].[Na+] [Example compound AAL] | A (The haze was less than 0.3%.) | A+ (The amount of change of the degree of polarization before and after the elapse of time was less than 0.05%.) | A+ (The amount of change of the degree of polarization before and after the elapse of time was less than 1.0%.) | A+ (The amount of change of the degree of polarization before and after the elapse of time was less than 0.05%.) | A+ (The amount of change of the degree of polarization before and after the elapse of time was less than 0.1%.) | A+ (The amount of change of the orthogonal transmittance before and after the elapse of time was less than 0.1%.) | A+ (The amount of change of the orthogonal transmittance before and after the elapse of time was less than 0.5%.) | A+ (The amount of change of the orthogonal transmittance before and after the elapse of time was less than 0.05%.) | A+ (The amount of change of the orthogonal transmittance before and after the elapse of time was less than 0.1%.) | A+ (The amount of change of the degree of polarization before and after the elapse of time was less than 0.05%.) | A+ (The amount of change of the degree of polarization before and after the elapse of time was less than 1.0%.) | A+ (The amount of change of the degree of polarization before and after the elapse of time was less than 0.05%.) | A+ (The amount of change of the degree of polarization before and after the elapse of time was less than 0.1%.) | A+ (The amount of change of the orthogonal transmittance before and after the elapse of time was less than 0.1%.) | A+ (The amount of change of the orthogonal transmittance before and after the elapse of time was less than 0.5%.) | A+ (The amount of change of the orthogonal transmittance before and after the elapse of time was less than 0.05%.) | A+ (The amount of change of the orthogonal transmittance before and after the elapse of time was less than 0.1%.)
2 | CC(C)[Si](Oc1c(Cc2ccccc2)c(=O)n(CS(=O)(=O)[O-])c(=O)n1C)(C(C)C)C(C)C.[Na+] [Example compound L] | A (The haze was less than 0.3%.) | A+ (The amount of change of the degree of polarization before and after the elapse of time was less than 0.05%.) | A+ (The amount of change of the degree of polarization before and after the elapse of time was less than 1.0%.) | A+ (The amount of change of the degree of polarization before and after the elapse of time was less than 0.05%.) | A+ (The amount of change of the degree of polarization before and after the elapse of time was less than 0.1%.) | A+ (The amount of change of the orthogonal transmittance before and after the elapse of time was less than 0.1%.) | A+ (The amount of change of the orthogonal transmittance before and after the elapse of time was less than 0.5%.) | A+ (The amount of change of the orthogonal transmittance before and after the elapse of time was less than 0.05%.) | A+ (The amount of change of the orthogonal transmittance before and after the elapse of time was less than 0.1%.) | A+ (The amount of change of the degree of polarization before and after the elapse of time was less than 0.05%.) | A+ (The amount of change of the degree of polarization before and after the elapse of time was less than 1.0%.) | A+ (The amount of change of the degree of polarization before and after the elapse of time was less than 0.05%.) | A+ (The amount of change of the degree of polarization before and after the elapse of time was less than 0.1%.) | A+ (The amount of change of the orthogonal transmittance before and after the elapse of time was less than 0.1%.) | A+ (The amount of change of the orthogonal transmittance before and after the elapse of time was less than 0.5%.) | A+ (The amount of change of the orthogonal transmittance before and after the elapse of time was less than 0.05%.) | A+ (The amount of change of the orthogonal transmittance before and after the elapse of time was less than 0.1%.)

— US20160369115A1, “POLARIZING PLATE COMPOSITION, POLARIZING PLATE PROTECTIVE FILM, POLARIZER, POLARIZING PLATE, LIQUID CRYSTAL DISPLAY DEVICE, AND COMPOUND USED IN THE LIQUID CRYSTAL DISPLAY DEVICE” (FUJIFILM Corporation, priority 2014, published 2016)
